The supplement of paper PMC10849652
The list shows a part of the results.

Sequences of proteins named here, by UniProt entry; tags and fusion partners are left off. A change or cut given only in a name is not applied to a line headed by its entry.
UniProt Q86UA6: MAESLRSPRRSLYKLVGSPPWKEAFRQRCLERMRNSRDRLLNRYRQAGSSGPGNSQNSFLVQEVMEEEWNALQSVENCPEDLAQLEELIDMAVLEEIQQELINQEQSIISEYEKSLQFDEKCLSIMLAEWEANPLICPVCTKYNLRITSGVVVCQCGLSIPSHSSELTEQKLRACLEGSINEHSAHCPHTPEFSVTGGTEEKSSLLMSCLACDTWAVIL
UniProt Q9NYV6: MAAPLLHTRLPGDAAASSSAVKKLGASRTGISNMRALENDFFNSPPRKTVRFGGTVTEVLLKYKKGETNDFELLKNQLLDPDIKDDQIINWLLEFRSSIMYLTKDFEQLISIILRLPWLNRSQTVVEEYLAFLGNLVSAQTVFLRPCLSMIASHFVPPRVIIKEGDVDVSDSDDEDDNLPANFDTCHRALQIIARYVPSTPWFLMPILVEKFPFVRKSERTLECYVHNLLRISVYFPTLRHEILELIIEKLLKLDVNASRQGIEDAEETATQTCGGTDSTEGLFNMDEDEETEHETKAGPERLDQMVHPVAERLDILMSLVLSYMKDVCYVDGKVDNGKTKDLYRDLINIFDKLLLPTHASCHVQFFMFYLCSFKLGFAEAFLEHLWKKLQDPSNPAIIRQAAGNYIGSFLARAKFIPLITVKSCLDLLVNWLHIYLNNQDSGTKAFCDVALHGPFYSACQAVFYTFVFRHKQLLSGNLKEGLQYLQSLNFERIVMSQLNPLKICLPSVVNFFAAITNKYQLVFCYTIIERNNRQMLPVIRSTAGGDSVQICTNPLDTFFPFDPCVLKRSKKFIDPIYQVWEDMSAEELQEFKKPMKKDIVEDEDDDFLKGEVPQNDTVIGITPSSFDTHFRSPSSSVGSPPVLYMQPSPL
UniProt Q96EP0: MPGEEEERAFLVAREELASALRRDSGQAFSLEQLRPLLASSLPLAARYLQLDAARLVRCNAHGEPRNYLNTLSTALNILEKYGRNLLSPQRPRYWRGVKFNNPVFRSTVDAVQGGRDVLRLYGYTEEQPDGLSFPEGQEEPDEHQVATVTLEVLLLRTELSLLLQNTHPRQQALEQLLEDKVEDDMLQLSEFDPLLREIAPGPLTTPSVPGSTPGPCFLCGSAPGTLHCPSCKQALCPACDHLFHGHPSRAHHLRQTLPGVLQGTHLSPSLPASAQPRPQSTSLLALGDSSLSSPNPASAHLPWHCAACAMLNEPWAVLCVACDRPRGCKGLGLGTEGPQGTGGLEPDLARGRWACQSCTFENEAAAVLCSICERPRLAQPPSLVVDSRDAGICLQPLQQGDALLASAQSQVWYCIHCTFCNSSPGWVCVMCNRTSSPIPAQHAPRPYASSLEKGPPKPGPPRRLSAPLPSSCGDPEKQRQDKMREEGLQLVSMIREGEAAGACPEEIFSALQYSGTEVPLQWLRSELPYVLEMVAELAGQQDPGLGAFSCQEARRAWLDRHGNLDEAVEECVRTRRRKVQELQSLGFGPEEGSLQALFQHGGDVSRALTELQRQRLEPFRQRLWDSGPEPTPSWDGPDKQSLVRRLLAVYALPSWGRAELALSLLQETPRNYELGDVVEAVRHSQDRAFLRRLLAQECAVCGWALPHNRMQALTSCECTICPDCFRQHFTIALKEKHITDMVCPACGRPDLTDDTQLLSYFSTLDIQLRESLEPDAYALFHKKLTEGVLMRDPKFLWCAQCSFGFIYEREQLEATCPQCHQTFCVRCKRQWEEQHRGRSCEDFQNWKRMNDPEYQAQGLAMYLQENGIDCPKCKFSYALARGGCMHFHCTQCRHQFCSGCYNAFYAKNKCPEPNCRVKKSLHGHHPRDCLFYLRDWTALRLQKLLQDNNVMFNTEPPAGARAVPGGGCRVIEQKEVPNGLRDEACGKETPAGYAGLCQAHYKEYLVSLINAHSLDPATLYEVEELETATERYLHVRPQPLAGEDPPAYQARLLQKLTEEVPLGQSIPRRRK
UniProt O75582, whole entry, looked up: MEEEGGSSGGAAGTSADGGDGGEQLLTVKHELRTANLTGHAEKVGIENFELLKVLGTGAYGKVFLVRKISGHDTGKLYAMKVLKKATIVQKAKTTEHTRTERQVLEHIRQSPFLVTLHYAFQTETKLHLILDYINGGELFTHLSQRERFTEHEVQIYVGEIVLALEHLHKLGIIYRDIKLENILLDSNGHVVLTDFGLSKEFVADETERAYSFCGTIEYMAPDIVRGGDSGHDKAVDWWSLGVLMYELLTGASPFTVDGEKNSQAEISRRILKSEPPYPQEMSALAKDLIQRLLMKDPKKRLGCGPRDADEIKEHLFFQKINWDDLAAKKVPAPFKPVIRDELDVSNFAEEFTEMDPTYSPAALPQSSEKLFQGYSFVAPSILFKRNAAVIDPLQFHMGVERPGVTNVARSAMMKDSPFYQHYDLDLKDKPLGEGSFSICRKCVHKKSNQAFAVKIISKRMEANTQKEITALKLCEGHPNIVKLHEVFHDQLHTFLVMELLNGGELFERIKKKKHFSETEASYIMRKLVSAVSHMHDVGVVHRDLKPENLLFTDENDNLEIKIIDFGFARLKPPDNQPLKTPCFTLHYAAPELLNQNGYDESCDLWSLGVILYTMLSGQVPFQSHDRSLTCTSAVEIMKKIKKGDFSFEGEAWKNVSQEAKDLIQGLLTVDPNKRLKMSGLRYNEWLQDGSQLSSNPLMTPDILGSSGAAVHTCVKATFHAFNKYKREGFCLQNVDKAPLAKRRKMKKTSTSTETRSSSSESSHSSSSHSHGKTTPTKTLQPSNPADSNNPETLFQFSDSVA
UniProt Q96P16: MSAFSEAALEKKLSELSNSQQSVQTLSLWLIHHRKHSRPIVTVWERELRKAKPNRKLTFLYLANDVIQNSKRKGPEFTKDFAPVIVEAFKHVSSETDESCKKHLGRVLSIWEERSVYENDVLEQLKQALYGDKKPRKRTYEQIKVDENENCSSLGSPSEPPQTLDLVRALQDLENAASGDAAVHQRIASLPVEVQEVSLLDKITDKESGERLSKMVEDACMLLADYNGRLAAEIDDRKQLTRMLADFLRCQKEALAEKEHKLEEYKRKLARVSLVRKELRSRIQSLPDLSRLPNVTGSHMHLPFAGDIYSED
UniProt Q92766: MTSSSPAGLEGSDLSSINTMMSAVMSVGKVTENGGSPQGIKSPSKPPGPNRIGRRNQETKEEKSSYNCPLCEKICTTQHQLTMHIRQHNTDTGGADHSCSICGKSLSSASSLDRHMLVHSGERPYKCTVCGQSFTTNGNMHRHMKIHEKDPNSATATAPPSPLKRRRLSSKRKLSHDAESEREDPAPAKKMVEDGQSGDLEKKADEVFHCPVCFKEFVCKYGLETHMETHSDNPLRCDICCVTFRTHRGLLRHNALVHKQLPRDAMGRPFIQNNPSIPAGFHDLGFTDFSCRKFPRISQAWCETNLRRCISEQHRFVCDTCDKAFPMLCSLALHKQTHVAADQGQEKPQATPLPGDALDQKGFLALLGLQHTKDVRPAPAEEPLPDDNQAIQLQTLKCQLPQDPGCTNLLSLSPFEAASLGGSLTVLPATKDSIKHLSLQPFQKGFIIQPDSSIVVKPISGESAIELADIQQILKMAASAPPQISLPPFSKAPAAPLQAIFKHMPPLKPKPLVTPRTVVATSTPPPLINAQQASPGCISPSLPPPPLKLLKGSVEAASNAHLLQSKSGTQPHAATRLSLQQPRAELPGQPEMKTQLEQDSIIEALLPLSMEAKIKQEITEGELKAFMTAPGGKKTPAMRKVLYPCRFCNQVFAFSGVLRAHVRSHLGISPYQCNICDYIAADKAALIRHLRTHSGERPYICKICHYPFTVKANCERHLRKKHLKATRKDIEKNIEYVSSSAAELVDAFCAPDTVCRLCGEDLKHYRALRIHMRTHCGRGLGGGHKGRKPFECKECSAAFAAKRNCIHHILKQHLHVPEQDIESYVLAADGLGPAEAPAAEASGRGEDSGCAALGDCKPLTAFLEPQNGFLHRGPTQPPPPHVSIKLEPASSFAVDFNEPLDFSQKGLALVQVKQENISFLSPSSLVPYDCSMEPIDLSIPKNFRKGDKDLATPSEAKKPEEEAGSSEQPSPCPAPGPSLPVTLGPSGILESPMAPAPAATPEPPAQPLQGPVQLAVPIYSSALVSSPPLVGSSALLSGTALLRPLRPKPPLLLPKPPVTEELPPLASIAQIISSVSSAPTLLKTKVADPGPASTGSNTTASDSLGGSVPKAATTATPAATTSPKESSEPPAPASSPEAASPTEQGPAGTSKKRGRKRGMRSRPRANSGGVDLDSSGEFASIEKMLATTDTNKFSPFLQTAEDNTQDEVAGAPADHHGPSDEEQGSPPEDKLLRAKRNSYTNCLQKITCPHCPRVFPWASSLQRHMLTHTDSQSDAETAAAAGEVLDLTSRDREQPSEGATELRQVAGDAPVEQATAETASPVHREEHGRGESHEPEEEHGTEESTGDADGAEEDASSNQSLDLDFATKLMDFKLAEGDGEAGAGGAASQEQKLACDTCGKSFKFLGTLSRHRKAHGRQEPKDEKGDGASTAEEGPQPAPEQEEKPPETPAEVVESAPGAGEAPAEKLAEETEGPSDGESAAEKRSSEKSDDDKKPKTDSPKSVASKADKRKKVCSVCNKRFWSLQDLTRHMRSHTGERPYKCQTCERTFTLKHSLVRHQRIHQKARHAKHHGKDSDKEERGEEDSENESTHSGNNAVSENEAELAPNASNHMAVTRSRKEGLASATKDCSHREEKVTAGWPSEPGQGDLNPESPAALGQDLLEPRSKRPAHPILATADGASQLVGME
UniProt Q9GZN7, whole entry, looked up: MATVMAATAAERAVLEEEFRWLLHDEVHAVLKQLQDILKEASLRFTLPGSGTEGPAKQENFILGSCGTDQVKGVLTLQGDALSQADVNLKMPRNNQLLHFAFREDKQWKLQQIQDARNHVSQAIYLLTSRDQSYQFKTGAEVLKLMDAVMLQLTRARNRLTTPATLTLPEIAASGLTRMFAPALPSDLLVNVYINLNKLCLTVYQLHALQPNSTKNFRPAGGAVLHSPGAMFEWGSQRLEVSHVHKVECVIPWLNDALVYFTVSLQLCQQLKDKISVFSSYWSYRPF
UniProt Q99942: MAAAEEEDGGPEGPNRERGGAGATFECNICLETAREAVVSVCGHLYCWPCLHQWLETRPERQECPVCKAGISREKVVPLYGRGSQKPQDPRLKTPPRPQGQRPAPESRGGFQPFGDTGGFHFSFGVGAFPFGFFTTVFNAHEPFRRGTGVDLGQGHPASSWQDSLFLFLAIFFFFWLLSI
UniProt Q15287: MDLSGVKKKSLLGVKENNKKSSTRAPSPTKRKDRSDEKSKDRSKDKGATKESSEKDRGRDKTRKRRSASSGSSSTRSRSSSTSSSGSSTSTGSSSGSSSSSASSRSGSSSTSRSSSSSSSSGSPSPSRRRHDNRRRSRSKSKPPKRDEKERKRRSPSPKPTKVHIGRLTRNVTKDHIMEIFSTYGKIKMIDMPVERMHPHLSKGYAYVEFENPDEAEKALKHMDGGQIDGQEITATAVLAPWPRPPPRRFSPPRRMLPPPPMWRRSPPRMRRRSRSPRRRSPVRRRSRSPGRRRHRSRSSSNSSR
UniProt Q8IXW5, whole entry, looked up: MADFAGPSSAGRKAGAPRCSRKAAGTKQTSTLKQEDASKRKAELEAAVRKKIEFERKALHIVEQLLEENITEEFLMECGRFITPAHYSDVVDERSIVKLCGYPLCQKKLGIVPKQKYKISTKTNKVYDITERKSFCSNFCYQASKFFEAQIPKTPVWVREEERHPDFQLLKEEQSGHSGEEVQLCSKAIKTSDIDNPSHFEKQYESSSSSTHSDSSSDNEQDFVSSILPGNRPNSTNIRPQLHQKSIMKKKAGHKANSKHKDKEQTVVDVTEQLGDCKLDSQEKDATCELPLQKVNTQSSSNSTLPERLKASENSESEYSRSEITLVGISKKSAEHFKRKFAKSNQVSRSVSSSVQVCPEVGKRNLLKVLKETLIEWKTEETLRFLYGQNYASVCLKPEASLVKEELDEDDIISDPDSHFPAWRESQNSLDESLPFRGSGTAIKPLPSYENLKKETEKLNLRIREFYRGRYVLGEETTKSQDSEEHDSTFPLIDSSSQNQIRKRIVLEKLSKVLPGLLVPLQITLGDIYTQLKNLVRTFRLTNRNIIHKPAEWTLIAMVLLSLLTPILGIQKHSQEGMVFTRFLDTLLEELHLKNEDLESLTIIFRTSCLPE
UniProt Q9H7B2: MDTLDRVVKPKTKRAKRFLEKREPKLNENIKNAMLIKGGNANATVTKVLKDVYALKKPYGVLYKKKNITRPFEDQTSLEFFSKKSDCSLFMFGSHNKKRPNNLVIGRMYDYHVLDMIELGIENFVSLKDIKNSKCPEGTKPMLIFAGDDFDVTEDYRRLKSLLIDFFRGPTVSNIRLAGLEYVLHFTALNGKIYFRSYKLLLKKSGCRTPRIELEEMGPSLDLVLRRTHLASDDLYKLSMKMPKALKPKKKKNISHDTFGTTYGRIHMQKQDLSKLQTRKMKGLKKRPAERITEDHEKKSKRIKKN

Assays:
Experiment in all cases: log2 fold change, soluble protein after heating vs DMSO (PISA); higher = thermal stabilisation; K562 cells, 10 uM, 30 min; active = over 0.2 and 3.5 SD of the protein, either way, in both replicates (recomputed)
[1] = compound: Cc1cccc(CC(=O)N2CCc3c2ccc(-c2cn(C)c4ncnc(N)c24)c3F)n1
Outline: (§1)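 Thermal stability values are relative to control samples and come from duplicates. They are expressed as log2 fold changes. For measurement, K562 cells (2×10^6 cells/mL) received 10 μM compound for 30 min, and aliquots were heated for 3 min over 48°C-58°C, pooled, and extracted at 4°C in PBS with 0.5% NP-40. Soluble protein, the supernatant after 21,000xg for 90 min, was quantified by TMTpro 16plex LC-MS/MS with equalised channel sums.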

nilotinib = compound: Cc1cn(-c2cc(NC(=O)c3ccc(C)c(Nc4nccc(-c5cccnc5)n4)c3)cc(C(F)(F)F)c2)cn1 [nilotinib]
Outline: as §1

[2] = compound: Cc1nc(Nc2n[nH]c3c2CN(C(=O)N[C@H](CN(C)C)c2ccccc2)C3(C)C)c2sccc2n1
Outline: as §1

[3] = compound: Cc1ncc(-c2ccnc(Nc3ccc(S(C)(=O)=O)cc3)n2)n1C(C)C
Outline: as §1

tipifarnib = compound: Cn1cncc1[C@@](N)(c1ccc(Cl)cc1)c1ccc2c(c1)c(-c1cccc(Cl)c1)cc(=O)n2C [tipifarnib]
Outline: as §1

mubritinib = compound: FC(F)(F)c1ccc(/C=C/c2nc(COc3ccc(CCCCn4ccnn4)cc3)co2)cc1 [mubritinib]
Outline: as §1

bafetinib = compound: Cc1ccc(NC(=O)c2ccc(CN3CC[C@H](N(C)C)C3)c(C(F)(F)F)c2)cc1Nc1nccc(-c2cncnc2)n1 [bafetinib]
Outline: as §1

dasatinib = compound: Cc1nc(Nc2ncc(C(=O)Nc3c(C)cccc3Cl)s2)cc(N2CCN(CCO)CC2)n1 [dasatinib]
Outline: as §1

[4] = compound: Cn1cc(-c2ccc3c(c2)CCN3C(=O)Cc2cccc(C(F)(F)F)c2)c2c(N)ncnc21
Outline: as §1

[5] = compound: Cn1cc(-c2ccc3nnc(C(F)(F)c4ccc5ncccc5c4)n3n2)cn1
Outline: as §1

Measured: log2 fold change

RPUSD3 (UniProt Q6P087)
inactive: [1] 0.018 | nilotinib -0.231 | [2] 0.035 | [3] 0.024 | tipifarnib 0.051 | mubritinib 0.161

RPAIN isoform 8 (UniProt Q86UA6)
inactive: bafetinib -0.064 | dasatinib -0.043 | [4] -0.022 | [5] -0.142 | tipifarnib -0.042

RNFT1 (UniProt Q5M7Z0)
inactive: [1] -0.112 | nilotinib -0.095 | [2] -0.064 | [3] -0.063 | [5] -0.248 | tipifarnib 0.129 | mubritinib 0.038

RRN3 (UniProt Q9NYV6)
inactive: [1] -0.065 | tipifarnib -0.082

RPS19 (UniProt M0R2L9)
inactive: nilotinib 0.116 | [2] 0 | [3] -0.267 | tipifarnib -0.126 | mubritinib 0.229

ROS1 (UniProt P08922)
inactive: bafetinib 0.017 | [1] -0.192 | nilotinib -0.102 | [2] 0.03 | [3] -0.21 | [4] 0.059 | tipifarnib 0.068 | mubritinib 0.106

RPL13 (UniProt P26373)
inactive: bafetinib 0.48 | [1] 0.014 | nilotinib -0.01 | [2] 0.211 | dasatinib 0.318 | [3] -0.066 | [4] -0.68 | [5] -0.259 | tipifarnib 0.42 | mubritinib -0.319

RNF40 (UniProt O75150)
inactive: bafetinib -0.162 | dasatinib -0.271 | [4] 0.149 | [5] -0.07 | mubritinib -0.302

RNF31 (UniProt Q96EP0)
inactive: [1] -0.084 | nilotinib -0.046 | [2] -0.231 | [3] 0.097

RPS6KB2 (UniProt Q9UBS0)
inactive: [4] 0.024 | mubritinib -0.205

RPS6KA5 (UniProt O75582)
inactive: [5] -0.098 | tipifarnib -0.07 | mubritinib -0.171

RPRD2 (UniProt Q5VT52)
inactive: bafetinib 0.252 | [5] 0.095 | tipifarnib -0.006

RPRD1A (UniProt Q96P16)
inactive: [1] 0.017 | dasatinib 0.005 | [5] -0.118

RREB1 isoform 2 (UniProt Q92766)
inactive: bafetinib -0.009 | [1] 0.051 | dasatinib -0.082 | [4] -0.019 | [5] -0.035 | tipifarnib 0.001 | mubritinib 0.056

RPLP0 (UniProt F8VWV4)
inactive: [4] 0.083

RPL37A (UniProt P61513)
inactive: bafetinib 0.481 | [1] -0.013 | nilotinib 0.084 | [2] 0.326 | dasatinib 0.283 | [3] -0.024 | [4] -0.592 | [5] -0.179 | tipifarnib 0.256 | mubritinib -0.368

RPP30 (UniProt Q5VU11)
inactive: bafetinib 0.074 | [1] 0.091 | nilotinib -0.101 | [2] -0.115 | dasatinib -0.045 | [3] -0.022 | [5] -0.013

RPSA (UniProt F8WD59)
inactive: mubritinib -0.253

RNF4 (UniProt P78317)
inactive: bafetinib 0.145 | nilotinib 0.047 | [2] -0.018 | [3] 0.027 | tipifarnib -0.245 | mubritinib -0.007

RNF26 (UniProt Q9BY78)
inactive: bafetinib 0.083 | [1] 0.111 | [5] -0.011

RPS3 (UniProt E9PJN9)
inactive: [1] 0.076 | dasatinib -0.207 | [5] -0.159

RPS28 (UniProt P62857)
inactive: bafetinib 0.084 | [1] -0.023 | nilotinib 0.009 | [2] -0.011 | dasatinib 0.146 | [3] -0.037 | [4] 0.007 | [5] -0.03 | tipifarnib 0.06 | mubritinib -0.004

RPS7, A0A2R8Y623
inactive: bafetinib 0.308 | nilotinib -0.185 | [2] 0.117 | [3] 0.039 | [5] 0.192 | mubritinib 0.038

ROGDI (UniProt Q9GZN7)
inactive: [1] 0.082 | [4] -0.055 | [5] 0.104

RPL21 (UniProt P46778)
inactive: bafetinib 0.396 | [1] -0.001 | nilotinib 0.032 | [2] 0.269 | dasatinib 0.308 | [3] -0.025 | [4] -0.612 | [5] -0.175 | tipifarnib 0.429 | mubritinib -0.346

RPUSD4 (UniProt Q96CM3)
inactive: [1] -0.027 | [4] -0.335 | [5] -0.053 | tipifarnib 0.181 | mubritinib -0.453

RNF5 (UniProt Q99942)
inactive: bafetinib -0.119 | [1] 0.057 | nilotinib -0.121 | [2] -0.003 | [3] 0 | [4] 0.024 | [5] -0.202 | tipifarnib -0.075 | mubritinib 0.012

RRBP1 (UniProt Q9P2E9)
inactive: bafetinib 0.282 | [1] -0.054 | nilotinib -0.031 | [2] 0.015 | dasatinib 0.169 | [3] -0.014 | [4] -0.369 | [5] -0.208 | tipifarnib 0.236 | mubritinib -0.089

RRP1 (UniProt P56182)
inactive: [1] -0.112 | [5] 0.007

RNPS1 (UniProt Q15287)
inactive: bafetinib -0.073 | [1] -0.032 | nilotinib -0.035 | dasatinib -0.007 | [3] -0.12 | [4] -0.037 | [5] 0.011 | tipifarnib -0.084 | mubritinib 0.003
active: [2] -0.62

RPL11 (UniProt P62913)
inactive: bafetinib 0.455 | [1] 0.045 | nilotinib -0.005 | [2] 0.252 | dasatinib 0.175 | [3] -0.025 | [4] -0.462 | [5] -0.171 | tipifarnib 0.43 | mubritinib -0.266

RPAP2 (UniProt Q8IXW5)
inactive: [1] 0.056 | [4] 0 | [5] -0.203

RPS3A (UniProt D6R9B6)
inactive: dasatinib 0.155

RPL10 (UniProt F8W7C6)
inactive: bafetinib 0.203 | [1] 0.067 | nilotinib -0.138 | [2] 0.094 | [3] -0.047 | [4] -0.262 | tipifarnib -0.035 | mubritinib -0.107

RPL7L1 (UniProt Q6DKI1)
inactive: bafetinib -0.135 | [1] -0.03 | nilotinib 0.019 | [2] 0.058 | dasatinib 0.246 | [3] -0.092 | [5] -0.059

RPL31 (UniProt P62899)
inactive: bafetinib 0.342 | [1] 0.024 | nilotinib 0.001 | [2] 0.179 | dasatinib 0.14 | [3] -0.041 | [4] -0.231 | [5] -0.082 | tipifarnib 0.151 | mubritinib -0.095

Reprinted from the entries so far (10 entries):
ROGDI (UniProt Q9GZN7)
inactive: [1] 0.082 | [4] -0.055 | [5] 0.104

RPL21 (UniProt P46778)
inactive: bafetinib 0.396 | [1] -0.001 | nilotinib 0.032 | [2] 0.269 | dasatinib 0.308 | [3] -0.025 | [4] -0.612 | [5] -0.175 | tipifarnib 0.429 | mubritinib -0.346

RPUSD4 (UniProt Q96CM3)
inactive: [1] -0.027 | [4] -0.335 | [5] -0.053 | tipifarnib 0.181 | mubritinib -0.453

RNF5 (UniProt Q99942)
inactive: bafetinib -0.119 | [1] 0.057 | nilotinib -0.121 | [2] -0.003 | [3] 0 | [4] 0.024 | [5] -0.202 | tipifarnib -0.075 | mubritinib 0.012

RRBP1 (UniProt Q9P2E9)
inactive: bafetinib 0.282 | [1] -0.054 | nilotinib -0.031 | [2] 0.015 | dasatinib 0.169 | [3] -0.014 | [4] -0.369 | [5] -0.208 | tipifarnib 0.236 | mubritinib -0.089

RRP1 (UniProt P56182)
inactive: [1] -0.112 | [5] 0.007

RNPS1 (UniProt Q15287)
inactive: bafetinib -0.073 | [1] -0.032 | nilotinib -0.035 | dasatinib -0.007 | [3] -0.12 | [4] -0.037 | [5] 0.011 | tipifarnib -0.084 | mubritinib 0.003
active: [2] -0.62

RPL11 (UniProt P62913)
inactive: bafetinib 0.455 | [1] 0.045 | nilotinib -0.005 | [2] 0.252 | dasatinib 0.175 | [3] -0.025 | [4] -0.462 | [5] -0.171 | tipifarnib 0.43 | mubritinib -0.266

RPAP2 (UniProt Q8IXW5)
inactive: [1] 0.056 | [4] 0 | [5] -0.203

RPS3A (UniProt D6R9B6)
inactive: dasatinib 0.155

(continued)

RPF2 (UniProt Q9H7B2)
inactive: [1] -0.151

RPL36 (UniProt Q9Y3U8)
inactive: bafetinib 0.511 | [1] 0.02 | nilotinib -0.053 | [2] 0.225 | dasatinib 0.311 | [3] -0.055 | [4] -0.468 | [5] -0.283 | tipifarnib 0.397 | mubritinib -0.304

RPE (UniProt Q96AT9)
inactive: bafetinib 0.015 | nilotinib 0.028 | [2] 0.228 | dasatinib 0.092 | [3] 0.033 | [4] 0.015 | [5] 0.095 | tipifarnib -0.076 | mubritinib 0.08
